Assay results taken from paper PMC9374197.
These are yes or no findings as the source states them, for the method shown. In cells and extracts the contact can be indirect. Some entries that bind do so weakly or less than the wild type. For some assays here: Tags and fused reporters may be left off the sequences shown.

Chains of the proteins cited; added tags and fusions are not shown. Residues count along the entry.
UniProt Q9NZQ7, residues 19-290: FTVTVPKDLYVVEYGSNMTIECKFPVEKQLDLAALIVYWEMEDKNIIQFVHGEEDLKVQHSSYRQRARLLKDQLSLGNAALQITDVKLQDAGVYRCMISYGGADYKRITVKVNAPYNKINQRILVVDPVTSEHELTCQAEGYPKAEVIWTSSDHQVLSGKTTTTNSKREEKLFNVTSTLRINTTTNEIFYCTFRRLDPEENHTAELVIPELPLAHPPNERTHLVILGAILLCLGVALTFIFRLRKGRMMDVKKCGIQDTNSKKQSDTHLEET

Key:
[1] = molecular target: programmed death ligand-1 (PD-L1) (human (endogenous in HepG2)) (UniProt Q9NZQ7); assay: co-IP; endogenous proteins in HepG2 whole-cell lysate (NP40 buffer: 1% NP40, 150 mM NaCl, 40 mM Tris pH 7.5); PD-L1 immuno-complex captured on protein A/G beads, blot for RNF125
Flag-PD-L1 = Flag-PD-L1 (UniProt Q9NZQ7); assay: co-IP; HEK293T co-transfected with HA-RNF125 and Flag-PD-L1 or Flag-vector; anti-Flag immunoprecipitate blotted with anti-HA; NP40 buffer (1% NP40, 150 mM NaCl, 40 mM Tris pH 7.5)

B1: RNF125 (protein, UniProt Q96EQ8 1-232)
chain: MGSVLSTDSGKSAPASATARALERRRDPELPVTSFDCAVCLEVLHQPVRTRCGHVFCRSCIATSLKNNKWTCPYCRAYLPSEGVPATDVAKRMKSEYKNCAECDTLVCLSEMRAHIRTCQKYIDKYGPLQELEETAARCVCPFCQRELYEDSLLDHCITHHRSERRPVFCPLCRLIPDENPSSFSGSLIRHLQVSHTLFYDDFIDFNIIEEALIRRVLDRSLLEYVNHSNTT
- binding [1]: binds

B2: HA-RNF125 (protein, UniProt Q96EQ8 1-232)
chain: B1 chain
- binding (Flag-PD-L1): binds
